Experimental findings from PubChem BioAssay AID1745846 (National Center for Advancing Translational Sciences (NCATS), 2022) are described below.

The hits were mostly taken out for another list; the other results follow. Inconclusive results are not listed. Activity calls are given as the source filed them. Calls come from the whole dose curve; as a rule, active = well fitted inhibition curve with a large enough effect; inconclusive = small, poorly fitted or top-dose-only effect; inactive = flat fitted curve, though single readings scatter.
% is set by controls: 0 for no effect and ±100 for the full control effect.

This test can be described thus: Firefly Luciferase Counterscreen for Inhibitors of ATXN expression. Conditions: luminescence; at 57.5 µM (top of the series). The text has this:
University of Utah School of Medicine, Salt Lake City, Utah
Spinocerebellar ataxia type 2 (SCA2) is a multisystem neurodegenerative disease caused by a dominantly acting mutation leading to expansion of a polyQ domain in the ataxin-2 protein (ATXN2). SCA2 patients develop progressive ataxia and later lose function in other neuronal systems. Prominent parkinsonian signs develop in some patients. Like many neurodegenerative disorders, no symptomatic or disease-modifying treatments are known.
The primary objective of the proposed research is to identify compounds inhibiting ATXN2 expression and to test them for efficacy in SCA2 mouse models. We have developed a cell-based assay paired with an in vivo mouse model using identical luciferase expression constructs. This approach takes advantage of an ATXN2-luciferase transgene, with the luciferase gene flanked by the upstream and downstream portions of the ATXN2 gene. Here we describe a 5-7 dose quantitative high thoroughput screen (qHTS) for compounds lowering ATXN2 expression. […]
5; Detection; Luminescence; Viewlux plate reader (PerkinElmer). […]
5. End-point luminescence is then measured on the Viewlux (PerkinElmer) imager equipped with a clear emission filter using a 2 sec exposure. […]
With `COc1ccccc1C(=O)NNC(=S)NC(=O)c1ccco1`, the activity change, negative = inhibition is inactive: -17.4%.
